Experimental data as given in PubChem BioAssay AID624297 (National Center for Advancing Translational Sciences (NCATS), 2012).
The campaign covered roughly 340,000 compounds. About 6,200 (1.8%) were called active. Inconclusive means that the source gave no clear call. Such entries were picked first, then a sample of the others. Calls come from the whole dose curve; as a rule, active = well fitted activation curve with a large enough effect; inconclusive = small, poorly fitted or top-dose-only effect; inactive = no such curve, though single readings can be large or run the other way. Potencies of inconclusive entries are doubtful fits and often do not repeat.
Potency is the fitted concentration of half-maximal effect.

Assay: A quantitative high throughput screen for small molecules that induce DNA re-replication in SW480 colon adenocarcinoma cells. For re-replication activation: % of control where 0% means no effect. Note: nearly all actives have a fitted effect of over 55% in size.
Settings: Hoechst DNA content imaging, 48 h; re-replication activation: at 46.1 µM (top of the series) unless noted
In short: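 Treated cells incubate 48 hr (37 C, 5% CO2), are stained 40 min with Hoechst, and nuclear fluorescence is enumerated; a rise in nuclei with high DNA signal marks re-replication.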
With Cc1ccc(NC(=O)Nc2ccc3c(c2)CCC3)cc1C the Potency was inconclusive: 6.51 µM [activator, single point].
With COc1ccc(-c2cn[nH]c2-c2ccc(OCc3ccccc3F)cc2O)cc1OC the Potency was inconclusive: 23.1 µM [activator, single point].
For COC(=O)/C(=C1\Oc2ccc(C(C)(C)C)cc2S1)C(F)(F)F, the Potency was inconclusive: 29.1 µM [activator, single point].
In the case of O=[N+]([O-])c1ccc(NN=Cc2ccc(O)cc2O)nc1, the Potency is reported as inconclusive: 0.731 µM [activator, full curve, poor fit].
In the case of O=C(NCCS(=O)(=O)N1CCC2(CC1)OCCO2)c1ccc(F)cc1, the Potency is reported as inconclusive: 9.2 µM [activator, single point].
In the case of Cc1ccccc1-n1nnnc1SCC(=O)c1c(N)n(C2CC2)c(=O)[nH]c1=O, the Potency is reported as “inactive”.
With S=c1[nH]nc(-c2ccccc2)n1/N=C/c1cccc(Cl)c1 the Potency was “inactive”.
In the case of COCc1cc(C)nc(SCC(=O)Nc2cc(C(F)(F)F)ccc2N2CCOCC2)c1C#N, the Potency is reported as inconclusive: 25.9 µM [activator, single point].
With O=C(COc1ccc([N+](=O)[O-])cc1)Nc1cc(C(=O)O)cc(C(=O)O)c1 the Potency was inconclusive: 0.651 µM [activator, partial curve, poor fit].
For CC(=O)c1ccc(N2CCN(C(=O)/C=C/c3ccc4ccccc4n3)CC2)cc1, the Potency was inconclusive: 2.91 µM [activator, full curve, poor fit].
For COc1ccc(CN(CCCN2CCOCC2)C(=O)Nc2ccccc2)cc1OC, the Potency was “inactive”.
In the case of O=C1CCC/C(=N/Nc2ccc(Cl)cc2)C1, the Potency is reported as inconclusive: 29.1 µM [activator, single point].
For CCc1ccc(S(=O)(=O)Nc2cccc(C3OCCCO3)c2)cc1, the Potency was “inactive”.
With COc1cc(OC)cc(C(=O)Nc2ccc(S(=O)(=O)N3CCOCC3)cc2)c1 the Potency was “inactive”.
In the case of COc1cc(-c2onc3ccc(Br)cc23)cc(OC)c1OC, the Potency is reported as active: 18.4 µM.
With CCOc1ccc(-c2cn(-c3cccc(SC)c3)c(=O)[nH]2)cc1 the Potency was inconclusive: 23.1 µM [activator, partial curve, poor fit].
For CCN1CCN(S(=O)(=O)c2ccc(S(=O)(=O)NCC3CCCO3)cc2)CC1 (configuration not stated), the Potency was inconclusive: 16.4 µM [activator, single point].
With CCOC(=O)C1CCCN(C2=NC(=O)/C(=C/c3ccc(N(C)C)cc3)S2)C1 (configuration not stated) the Potency was inconclusive: 1.84 µM [activator, single point].
With CCOC(=O)c1c(C)[nH]c(C(=O)OCC(=O)N(C)CC(=O)Nc2ccccc2Cl)c1C the Potency was inconclusive: 16.4 µM [activator, single point].
With CC1=Nc2ccccc2/C1=C\c1nc(-c2ccc(C(F)(F)F)cc2)oc1O the Potency was inconclusive: 29.1 µM [activator, single point].
For COc1ccc(O)c(/C=N/NC(=O)CSc2nnc(C)n2-c2ccccc2)c1, the Potency was inconclusive: 3.66 µM [activator, full curve].
In the case of CC(C)C[C@H]1CNC(=S)N1CC1CCN(CCCC2CCCCC2)CC1, the Potency is reported as “inactive”.
In the case of CCOc1cccc(/C=N/NC(=S)Nc2cc(S(=O)(=O)N3CCOCC3)ccc2N2CCOCC2)c1O, the Potency is reported as inconclusive: 29.1 µM [activator, single point].
In the case of Cc1oc(-c2ccccc2F)nc1CSCC(=O)NC1CC1, the Potency is reported as inconclusive: 6.51 µM [activator, single point].
For O=C1NC2(CCCCC2)C(=O)N1CC(=O)N1CCc2ccccc21, the Potency was “inactive”.
With OC(c1cc(-c2ccc(C(F)(F)F)cc2)nc(C(F)(F)F)c1)C1CCCCN1 (configuration not stated) the Potency was inconclusive: 0.13 µM [activator, full curve, poor fit].
For Cc1cccc(C)c1N1CCN(C(=O)c2ccc3c(c2)OCO3)CC1, the Potency was inconclusive: 29.1 µM [activator, single point].
With COc1cccc(/C=C/C(=O)OCC(=O)c2cc(C)n(CC3CCCO3)c2C)c1OC (configuration not stated) the Potency was inconclusive: 2.59 µM [activator, full curve, poor fit].
In the case of O=S(=O)(c1ccc(OCC(O)CN2CCN(c3ccccc3Cl)CC2)cc1)N1CCOCC1 (configuration not stated), the Potency is reported as inconclusive: 29.1 µM [activator, single point].
For CCCc1ccc(C(=O)NNc2cccc(C)c2)cc1, the Potency was inconclusive: 20.6 µM [activator, single point].
With CC(NC(=O)c1cccnc1)C(c1cccs1)N1CCN(c2ccccc2F)CC1 (configuration not stated) the Potency was “inactive”.
With Nc1nc(SCC(=O)Nc2cccc([N+](=O)[O-])c2)n[nH]1 the Potency was “inactive”.
For Cc1noc(/C=C/N(C)C)c1S(=O)(=O)N1CCCC(C(=O)NCc2ccccc2Cl)C1 (configuration not stated), the Potency was inconclusive: 32.6 µM [activator, partial curve, poor fit].
In the case of Cc1nn(-c2cccc(Cl)c2)c(Cl)c1/C=N/NC(=O)c1cccs1, the Potency is reported as inconclusive: 23.1 µM [activator, partial curve, poor fit].
In the case of COc1ccc(-c2noc(N3CCC(C(=O)Nc4ccc(OC)cc4OC)CC3)n2)cc1, the Potency is reported as “inactive”.
For O=C(NNC(=O)C1CCN(S(=O)(=O)c2c(Cl)cccc2Cl)CC1)c1ccccc1O, the Potency was inconclusive: 29.1 µM [activator, single point].
In the case of CCCCCC1CCC(C(=O)N2CCOCC2)CC1 (configuration not stated), the Potency is reported as “inactive”.
For Cc1ccc(S(=O)(=O)N2CCC(C(=O)OCc3c(C)noc3C)CC2)cc1C, the Potency was inconclusive: 18.4 µM [activator, single point].
With CCN(CC)C(=O)CSC(Nc1ccc(F)cc1)=C(C#N)C#N the Potency was “inactive”.
With CN1CCc2c(sc3c2C(=O)NC(c2ccc(-c4ccc(Cl)cc4)o2)N3)C1 (configuration not stated) the Potency was inconclusive: 6.51 µM [activator, full curve, poor fit].
In the case of COc1ccc(S(=O)(=O)Nc2ccc3c(c2)C(=O)N([C@@H](C)CO)C[C@H](C)[C@H](CN(C)S(=O)(=O)c2ccc(F)cc2)O3)cc1, the Potency is reported as “inactive”.
For Nc1ncnc(Nc2ccccc2Oc2ccccc2)n1, the re-replication activation was inconclusive: 35.4% [activator].
With O=c1c([N+](=O)[O-])c(N2CCCCC2)c2ccccc2n1-c1ccccc1 the Potency was inconclusive: 29.1 µM [activator, partial curve, poor fit].
For FC(F)(F)c1nc2ccccc2[nH]1, the Potency was inconclusive: 18.4 µM [activator, single point].
For c1ccc2c(OCCCCN3CCOCC3)cccc2c1, the Potency was “inactive”.
With O=C(COn1nnc2ccc(C(F)(F)F)cc21)Nc1nnc(-c2ccccc2)o1 the Potency was “inactive”.
With COc1cccc2cc(/C(=N/O)c3ccccc3)oc12 the Potency was inconclusive: 6.51 µM [activator, partial curve, poor fit].
For COc1ccc(-c2nnc(SCc3nnc(-c4ccc(Cl)cc4)o3)n2-c2ccccc2)cc1, the Potency was inconclusive: 18.4 µM [activator, partial curve, poor fit].
With COc1ccc(CNC(=O)CN(C(=O)CCC(=O)Nc2nccs2)c2ccc(C)cc2)cc1 the Potency was inconclusive: 23.1 µM [activator, single point].
For CC(CCc1ccc(O)cc1)NC(c1ccccc1)c1ccc(Cl)cc1 (configuration not stated), the Potency was inconclusive: 23.1 µM [activator, partial curve, poor fit].
With O=C(CSc1nnc(Nc2ccccc2)s1)NC1CCS(=O)(=O)C1 (configuration not stated) the Potency was “inactive”.
For CCC(=O)c1ccc(OCC(=O)OCC(=O)NCCC2=CCCCC2)cc1, the Potency was “inactive”.
In the case of CN1C(=O)c2cccc3c(S(=O)(=O)N(C)C)ccc1c23, the Potency is reported as inconclusive: 18.4 µM [activator, partial curve, poor fit].
With CCc1ccc(NC(=O)CCc2nc3cccnc3n2Cc2ccc(OC)cc2)cc1 the Potency was inconclusive: 29.1 µM [activator, single point].
With O=C(Nc1ccccc1N1CCN(C(=O)c2ccc(Cl)cc2)CC1)c1ccc([N+](=O)[O-])o1 the Potency was active: 16.4 µM.
In the case of Cc1cc(C)n(C(=O)C(C(=O)c2ccccc2)C(C)C)n1 (configuration not stated), the Potency is reported as inconclusive: 1.16 µM [activator, partial curve, poor fit].
In the case of COCCn1c(C)cc(C(=O)COC(=O)CCS(=O)(=O)c2ccc(C)cc2)c1C, the Potency is reported as inconclusive: 29.1 µM [activator, single point].
For CN(C)c1ccc(C(=O)N2CCN(C(=O)C3CCCO3)CC2)cc1 (configuration not stated), the Potency was inconclusive: 16.4 µM [activator, partial curve].
In the case of C[C@]12c3[nH]c4cc(-c5ccco5)ccc4c3CCN1C(=O)[C@@H](CC(=O)NCCN1CCOCC1)C[C@@H]2C(=O)N1CCCCC1, the Potency is reported as inconclusive: 4.11 µM [activator, partial curve, poor fit].
With Cc1ccccc1OCC(=O)N/N=C/c1cn(Cc2ccccc2)c2ccccc12 the Potency was “inactive”.
With O=C(CNc1cccc(S(=O)(=O)N2CCOCC2)c1)N1CCc2ccccc21 the Potency was inconclusive: 20.6 µM [activator, single point].
With Cc1ccc(OCCCC(=O)N2CCN(S(=O)(=O)c3cccc(F)c3)CC2)cc1 the Potency was inconclusive: 0.146 µM [activator, full curve, poor fit].
For Cc1ccc(-n2ncc3c2CCCC3NC(=O)CCn2ccnc2C)cc1C (configuration not stated), the Potency was “inactive”.
With CN1C(=O)/C(=C/c2ccc(O)c([N+](=O)[O-])c2)NC1=S the Potency was “inactive”.
In the case of COc1ccc(/C=N/OCC(=O)Nc2cc(C)on2)cc1OC, the Potency is reported as “inactive”.
In the case of COc1cccc(CC2(CO)CCCN(Cc3nc(-c4cccs4)oc3C)C2)c1 (configuration not stated), the Potency is reported as inconclusive: 18.4 µM [activator, single point].
For Cc1[nH]c(=O)nc(NN=Cc2ccc(Cl)cc2)c1C(=O)Nc1ccc(Cl)cc1, the Potency was inconclusive: 23.1 µM [activator, single point].
